The record followed here is patent US5445935.

For at least one entry, the source does not settle the construct or the ends of the probe.

The data set addresses tryptophan repressor (TrpR) (UniProt P0A881). Kind of data set: EMSA. The note with it: CITED Carey 1988 gel retardation, operator target sequence, with tryptophan; purified recombinant protein. For orientation: Mobility shift assays separate free from complexed probe on a gel.

Take “CTTGCACTAGTTAACTAGTCAGCAA (double strand) [fluorescein-labeled 25-mer trp operator duplex]”: the dissociation constant Kd (usually the constant that tells how readily two partners part at equilibrium) was 0.5 nM.
